{"sequences": {"note": "By UniProt entry, the sequences of proteins in these tests, tags left out. Where a name states a change or a piece, a line headed by the entry shows the natural chain unless it says otherwise.", "UniProt P49759": "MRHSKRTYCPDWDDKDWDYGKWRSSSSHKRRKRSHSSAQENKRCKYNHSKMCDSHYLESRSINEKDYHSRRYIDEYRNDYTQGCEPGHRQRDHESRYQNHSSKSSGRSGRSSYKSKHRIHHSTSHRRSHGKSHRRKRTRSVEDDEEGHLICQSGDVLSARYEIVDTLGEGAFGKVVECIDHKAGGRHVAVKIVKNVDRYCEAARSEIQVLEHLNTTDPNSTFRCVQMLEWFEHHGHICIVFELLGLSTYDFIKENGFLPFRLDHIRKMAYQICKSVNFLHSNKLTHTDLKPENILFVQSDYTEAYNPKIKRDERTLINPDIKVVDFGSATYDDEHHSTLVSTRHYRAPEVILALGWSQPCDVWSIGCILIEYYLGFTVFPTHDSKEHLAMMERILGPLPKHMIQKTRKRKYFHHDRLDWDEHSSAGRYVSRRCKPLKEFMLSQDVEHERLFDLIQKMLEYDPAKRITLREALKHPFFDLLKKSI"}, "source": "PubChem BioAssay AID382", "about": "(SGCOxCompounds, 2006)", "target": "Dual specificity protein kinase CLK1 (Homo sapiens) (UniProt P49759)", "experiment": "ligand-induced CLK1 melting temperature shift – biophysical, recombinant human kinase, DSF (AID 382)", "settings": "Recombinant CLK1, thermal shift (DSF), at 10 µM, protein 2 µM, buffer 10 mM HEPES, pH 7.5, NaCl 150 mM, with 50 µM L-Arg/L-Glu (1:1), stronger effect = higher value", "note": "Shown are results outside the selection of hits, which stands elsewhere. Activity calls are given as the source filed them. No rule for the calls is given here.", "data": [{"molecule": "CCC(CO)Nc1ccc2ncc(-c3cccc(Cl)c3)n2n1", "note": "(stereo unspecified)", "values": [{"measurement": "Tm shift", "value": "active: 5.5 Celsius"}]}]}
